According to article PMC8672210:
These are yes or no findings as the source states them, for the method shown. Binding seen in cells or lysates may run through a third protein. Some entries that bind do so weakly or less than the wild type.

The chains behind the UniProt entries cited, without tags or fusion partners.
UniProt P84022: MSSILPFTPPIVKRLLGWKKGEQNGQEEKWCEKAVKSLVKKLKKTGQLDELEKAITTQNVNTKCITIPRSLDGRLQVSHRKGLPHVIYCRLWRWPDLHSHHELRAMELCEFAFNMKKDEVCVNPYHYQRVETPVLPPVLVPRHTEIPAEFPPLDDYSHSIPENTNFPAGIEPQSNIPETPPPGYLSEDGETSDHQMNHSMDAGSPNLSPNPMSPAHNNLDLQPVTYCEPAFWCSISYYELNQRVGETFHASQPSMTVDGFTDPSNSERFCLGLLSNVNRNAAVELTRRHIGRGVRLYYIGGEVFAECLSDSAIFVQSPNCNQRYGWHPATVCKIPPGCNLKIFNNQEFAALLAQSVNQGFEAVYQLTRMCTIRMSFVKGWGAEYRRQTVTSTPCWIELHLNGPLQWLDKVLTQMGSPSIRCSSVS

Molecular target: T1, Sirtuin 2 (human (endogenous in MRC-5)) (UniProt Q8IXJ6)
T1 sequence: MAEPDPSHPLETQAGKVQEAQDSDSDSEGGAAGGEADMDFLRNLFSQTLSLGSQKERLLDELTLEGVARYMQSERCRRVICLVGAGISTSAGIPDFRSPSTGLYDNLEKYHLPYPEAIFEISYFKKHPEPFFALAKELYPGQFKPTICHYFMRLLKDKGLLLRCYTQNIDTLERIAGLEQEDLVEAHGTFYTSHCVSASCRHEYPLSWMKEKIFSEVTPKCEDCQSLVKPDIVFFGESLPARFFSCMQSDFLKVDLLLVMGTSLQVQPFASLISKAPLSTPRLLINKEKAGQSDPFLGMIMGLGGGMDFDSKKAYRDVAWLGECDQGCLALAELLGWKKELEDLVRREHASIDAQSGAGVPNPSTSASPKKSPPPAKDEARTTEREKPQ
Experiment: co-IP; lysate (400 μg total protein, hypotonic lysis buffer) of MRC-5 cells treated with TGF-β1 at 2 and 5 ng/ml for 24 h; precipitated with rabbit anti-Sirt2 or rabbit IgG on protein A/G beads; immunoblotted with Smad3 antibody

**Q.** For Smad3 (from UniProt P84022 1-425), which binding is on record?
**A.** binds
